From publication PMC11425246 come the findings set out here.

Amino acid sequences for entries named in this document (tags omitted).
UniProt P35222: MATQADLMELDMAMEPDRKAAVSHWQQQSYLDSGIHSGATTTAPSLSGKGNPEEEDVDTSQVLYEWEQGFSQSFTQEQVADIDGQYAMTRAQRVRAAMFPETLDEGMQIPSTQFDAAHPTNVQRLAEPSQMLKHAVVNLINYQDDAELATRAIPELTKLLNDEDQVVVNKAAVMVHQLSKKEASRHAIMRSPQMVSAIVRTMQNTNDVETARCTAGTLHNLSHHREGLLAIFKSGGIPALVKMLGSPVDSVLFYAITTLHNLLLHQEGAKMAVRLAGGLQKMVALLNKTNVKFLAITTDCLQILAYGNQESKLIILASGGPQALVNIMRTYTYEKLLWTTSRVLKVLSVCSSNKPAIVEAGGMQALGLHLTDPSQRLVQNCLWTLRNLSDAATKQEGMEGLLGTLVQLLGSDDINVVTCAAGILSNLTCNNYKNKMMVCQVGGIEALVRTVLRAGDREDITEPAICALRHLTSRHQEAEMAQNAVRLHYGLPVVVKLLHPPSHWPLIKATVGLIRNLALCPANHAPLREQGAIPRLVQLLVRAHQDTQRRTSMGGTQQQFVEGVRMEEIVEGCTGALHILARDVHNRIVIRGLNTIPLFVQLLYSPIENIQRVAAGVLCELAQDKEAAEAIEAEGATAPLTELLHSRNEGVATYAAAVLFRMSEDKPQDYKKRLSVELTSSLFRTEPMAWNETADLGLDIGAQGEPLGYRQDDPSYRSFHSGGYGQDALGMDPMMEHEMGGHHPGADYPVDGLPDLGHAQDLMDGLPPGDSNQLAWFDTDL
UniProt O00255: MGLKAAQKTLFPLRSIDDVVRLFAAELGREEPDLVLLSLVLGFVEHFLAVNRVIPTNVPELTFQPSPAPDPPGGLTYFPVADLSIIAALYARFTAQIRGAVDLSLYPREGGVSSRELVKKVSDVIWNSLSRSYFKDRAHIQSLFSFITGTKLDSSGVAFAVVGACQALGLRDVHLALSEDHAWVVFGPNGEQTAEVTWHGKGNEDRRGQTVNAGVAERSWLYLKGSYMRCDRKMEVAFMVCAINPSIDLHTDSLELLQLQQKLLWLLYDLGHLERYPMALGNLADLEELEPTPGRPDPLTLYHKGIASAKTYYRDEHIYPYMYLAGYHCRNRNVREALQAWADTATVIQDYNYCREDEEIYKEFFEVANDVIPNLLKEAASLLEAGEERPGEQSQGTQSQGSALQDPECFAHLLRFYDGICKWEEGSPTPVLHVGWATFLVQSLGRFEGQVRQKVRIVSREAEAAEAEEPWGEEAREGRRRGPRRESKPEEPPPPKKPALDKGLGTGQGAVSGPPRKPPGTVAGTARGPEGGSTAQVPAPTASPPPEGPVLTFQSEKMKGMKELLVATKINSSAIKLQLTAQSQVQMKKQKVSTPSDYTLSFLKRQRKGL

In this test the target is Flag‐β‐Catenin (UniProt P35222). Nature of the test: affinity purification with mass spectrometry; lysate (NP‐40 lysis buffer) of stable Flag‐β‐Catenin‐expressing QGP‐1 cells, anti‐Flag Ab or rabbit IgG control, Protein A+G agarose, 4 °C; SDS‐PAGE, silver staining, trypsin digest, LC/MS‐MS.

No constants are given. Whether binding was seen depends on the method and setting. In cells and extracts the contact can be indirect. A yes stands for co-enrichment or nearness to the bait. Other partners may have been found.

Take “MEN1 (endogenous) (from UniProt O00255 1-610)”: the binding entry is “binds”.
